According to publication PMC4937518:
These are yes or no findings as the source states them, for the method shown. For part of these data: In cells and extracts the contact can be indirect. Some results given as binding are weak or reduced against the parent protein; the word gives no strength.

By UniProt entry, the sequences of proteins in these tests, tags left out.
UniProt P63027: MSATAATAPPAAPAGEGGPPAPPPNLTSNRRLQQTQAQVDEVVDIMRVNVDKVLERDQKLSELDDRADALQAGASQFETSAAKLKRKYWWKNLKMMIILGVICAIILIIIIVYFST
UniProt Q9NQW7: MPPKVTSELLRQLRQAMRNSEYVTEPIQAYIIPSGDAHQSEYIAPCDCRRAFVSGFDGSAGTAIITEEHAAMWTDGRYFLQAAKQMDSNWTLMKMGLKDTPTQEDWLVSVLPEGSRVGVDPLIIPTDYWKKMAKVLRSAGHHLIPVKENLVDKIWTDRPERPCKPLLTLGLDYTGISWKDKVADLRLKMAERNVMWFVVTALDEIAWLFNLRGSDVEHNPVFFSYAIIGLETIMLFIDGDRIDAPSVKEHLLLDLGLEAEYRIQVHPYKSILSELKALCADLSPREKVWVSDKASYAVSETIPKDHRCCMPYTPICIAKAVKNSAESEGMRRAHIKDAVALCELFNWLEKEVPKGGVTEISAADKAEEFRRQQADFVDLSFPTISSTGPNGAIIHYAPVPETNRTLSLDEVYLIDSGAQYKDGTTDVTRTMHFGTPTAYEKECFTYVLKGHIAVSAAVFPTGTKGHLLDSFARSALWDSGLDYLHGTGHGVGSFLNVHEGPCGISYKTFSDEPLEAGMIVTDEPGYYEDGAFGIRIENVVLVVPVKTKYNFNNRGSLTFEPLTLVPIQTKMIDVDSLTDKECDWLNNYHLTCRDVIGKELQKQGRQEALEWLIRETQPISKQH

Tests used:
[1] = biological target: T1, SNAP23 (human (endogenous in U2OS)) (UniProt O00161); assay: cross-linking + SEC; protein correlation profiling: U2OS cells crosslinked in vivo with 6% formaldehyde (30 min, room temperature), lysed in 4% SDS with TCEP, denaturing SEC (BioBasic SEC1000, 0.2% SDS, 100 mM NaCl, 10 mM NaPO4 pH 6.0, 30 °C), 48 fractions, crosslinks reversed by heat, LC-MS/MS, LFQ elution profiles, n = 3
T1 sequence: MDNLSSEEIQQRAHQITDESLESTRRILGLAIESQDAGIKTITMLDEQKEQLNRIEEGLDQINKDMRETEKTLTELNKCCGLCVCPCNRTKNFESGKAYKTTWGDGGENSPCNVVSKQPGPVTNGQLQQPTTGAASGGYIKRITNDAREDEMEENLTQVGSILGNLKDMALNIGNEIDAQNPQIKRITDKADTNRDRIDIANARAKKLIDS

[2] = biological target: T2, threonine-tRNA ligase (TARS) (human (endogenous in U2OS)) (UniProt P26639); assay: SEC; protein correlation profiling of native (not crosslinked) U2OS cell extract, 40 fractions, LC-MS/MS; RAW files of the authors' previous native SEC analysis (ref. 6) analysed again here together with the crosslinked data set
T2 sequence: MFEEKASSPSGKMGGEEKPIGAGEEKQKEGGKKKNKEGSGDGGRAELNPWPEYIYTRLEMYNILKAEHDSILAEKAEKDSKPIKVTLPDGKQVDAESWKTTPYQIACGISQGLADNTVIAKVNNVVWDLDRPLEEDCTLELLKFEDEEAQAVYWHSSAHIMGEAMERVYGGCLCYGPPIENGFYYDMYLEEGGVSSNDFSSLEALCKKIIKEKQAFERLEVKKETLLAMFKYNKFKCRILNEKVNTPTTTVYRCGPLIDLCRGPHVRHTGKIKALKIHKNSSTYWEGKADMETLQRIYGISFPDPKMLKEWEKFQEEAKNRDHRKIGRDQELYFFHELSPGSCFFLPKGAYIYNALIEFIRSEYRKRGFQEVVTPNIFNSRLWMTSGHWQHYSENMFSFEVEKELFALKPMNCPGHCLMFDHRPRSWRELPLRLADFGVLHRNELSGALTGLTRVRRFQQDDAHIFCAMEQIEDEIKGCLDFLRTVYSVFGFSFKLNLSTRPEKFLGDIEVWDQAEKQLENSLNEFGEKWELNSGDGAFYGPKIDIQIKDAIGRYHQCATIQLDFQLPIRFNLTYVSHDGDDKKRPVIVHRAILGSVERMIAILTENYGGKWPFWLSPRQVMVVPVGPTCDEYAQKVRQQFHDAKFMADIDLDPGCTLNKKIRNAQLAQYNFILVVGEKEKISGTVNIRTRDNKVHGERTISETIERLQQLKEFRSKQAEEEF

[3] = biological target: T2, threonine-tRNA ligase (TARS) (human (endogenous in U2OS)); assay: cross-linking + SEC; protein correlation profiling: U2OS cells crosslinked in vivo with 6% formaldehyde (30 min, room temperature), lysed in 4% SDS with TCEP, denaturing SEC (BioBasic SEC1000, 0.2% SDS, 100 mM NaCl, 10 mM NaPO4 pH 6.0, 30 °C), 48 fractions, crosslinks reversed by heat, LC-MS/MS, LFQ elution profiles, n = 3

Row | Substance | binding [1] | binding [2] | binding [3]
1 | VAMP2 (from UniProt P63027 1-116) | no binding | – | –
2 | Xaa-Pro aminopeptidase 1 (XPNPEP1) (from UniProt Q9NQW7 1-623) (enzyme) | – | no binding (condition: native extract, not crosslinked) | binds
